Laboratory results published in US9823260B2, “Method to increase bioavailability of the delta-opioid receptor for management of pain and neuropsychiatric disorders” (priority 2014, dated 2017).
At least one compound was matched to its structure with a doubt left.

Test system: SSF-DOR expressing PC12 cells
Assay: Fluorescence antibody internalization assay of the surface pool of DOR
Type: cell-based, rat
Settings: 1-hour treatment; NGF 100 ng/mL, Wortmannin 10 μM, LY294002 10 μM, 740Y^PDGFR 25 μg/mL, DADLE 10 μM
Procedure: To eliminate the possibility that surface localized DOR was being actively internalized following PI3K inhibition, a fluorescence antibody internalization assay was performed in combination with pharmacologic inhibition of PI3K. SSF-DOR expressing PC12 cells were incubated with a cell-impermeable primary M1-Alexa 647 conjugated antibody to label the surface pool of receptors. The cells were treated with pharmacologic agents for 1 hour as in previous experiments, and receptor internalization was determined by adding a cell-impermeable secondary Alexa-488 conjugated antibody that recognizes the M1 primary antibody. The amount of internalization is quantified using a Pearson's Correlation Coefficient to determine the colocalization of the primary and secondary antibodies.

| Compound | colocalization of primary and secondary antibody (Pearson's Correlation Coefficient; internalization of surface DOR) |
| --- | --- |
| O=c1cc(N2CCOCC2)oc2c(-c3ccccc3)cccc12 [LY294002] | very strong colocalization |
| COC[C@H]1OC(=O)c2coc3c2[C@@]1(C)C1=C(C3=O)[C@@H]2CCC(=O)[C@@]2(C)C[C@H]1OC(C)=O [Wortmannin] | very strong colocalization |
